Among the data in PubChem BioAssay AID2685 (National Center for Advancing Translational Sciences (NCATS), 2010) are cell number change and AC50 values, retold here.

This assay is described as follows: qHTS Assay for Lipid Storage Modulators in Drosophila S3 Cells.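 As to cell number change: cells counted by Cell Tracker Red CMTPX staining in the red channel.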 The following applies: BODIPY lipid droplet fluorescence, 18-24 h; for cell number change: measured here: cell count max response, cells fed with added oleic acid. An outline of the steps:
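Laser-scanning cytometry quantifies lipid droplet accumulation (500–530 nm total intensity; droplet/cell object ratio) in oleic acid-fed (400 uM added) Drosophila S3 cells treated with a concentration series. 20 uM Triacsin C defined 100% inhibition.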

Where [1] appears, read: measured here: lipid fluorescence (Fed channel) AC50, cells fed with added oleic acid.
Setting [2] is: measured here: cell number channel AC50, cells fed with added oleic acid.

SMILES strings stand for the structures. The list shows a part of the results. Further columns of the screen follow, without active or inactive calls. Compounds called inactive in the main read-out are mostly missing here. The note in brackets gives the kind of curve behind each potency; many fits are weak.

Turning to `CC1=C(C(=O)OC2CCCCC2)C(c2ccc(N(C)C)cc2)NC(=O)N1` (stereo not given), the cell number change was -29.7%.

Regarding `O=[N+]([O-])c1ccc(C2CCCC/C2=N/OCc2ccc(F)cc2)c([N+](=O)[O-])c1` (stereo not given), the cell number change was -27.4%. The concentration at half-maximal activity (AC50) under setting [1] was 16.4 µM [falling, single point].

On to `COC(=O)c1ccc(OC(=O)c2ccccc2F)cc1`, for which the cell number change is 10.6%. Further, the AC50 under setting [2] is 6.51 µM [falling, single point]. Besides, the AC50 under setting [1] was 4.61 µM [falling, partial curve, poor fit].

In the case of `Cc1cc(CNC(=O)COc2ccc(F)cc2Cl)cc(C)c1O`, the cell number change stood at 34.2%. For the same molecule, the AC50 under setting [2] was 6.51 µM [rising, single point].

For `CCOC(=O)CCCNC(=O)CN1C(=O)NC2(CCCCCC2)C1=O`, the cell number change was 3.98%.

Turning to `CCN(CC(=O)Nc1ccc(NC(C)=O)cc1)C(=O)C1(c2ccccc2)CC1`, the cell number change was determined as 12.3%. Moreover, under setting [1], the AC50 is 32.6 µM [rising, single point].

As to `COc1cc2c(cc1OC)C(c1cccc(Cl)c1)CC(=O)N2` (stereo not given), the cell number change is -19%.

Regarding `Cc1cc(C(=O)O)ccc1NCc1ccncc1`, the cell number change was 7.12%. Besides, the AC50 under setting [1] was 18.4 µM [falling, single point].

In the case of `COc1ccc(NC(=O)CCc2nc(-c3ccc(C)cc3)no2)cc1Cl`, the cell number change was -5.37%.

For `Cc1ccc2nc(Nc3ccc(C)c(C)c3)c3nncn3c2c1`, the cell number change stood at 6.94%. For the same molecule, the AC50 under setting [1] is 29.1 µM [rising, single point].

`Cc1cc(C)cc(NC(=O)CN2CCN(c3ccccc3)CC2)c1`: the cell number change is -48.1%. Also, the AC50 under setting [2] is 13 µM [falling, partial curve, poor fit]. Also, the AC50 under setting [1] was 0.366 µM [falling, full curve].

For `COc1cccc(C(=O)NNC(=O)c2ccccc2Br)c1`, the cell number change is -0.0113%. Moreover, the AC50 under setting [1] was 0.651 µM [falling, single point].

Consider `CCN(CC)C1=N/C(=C\c2ccco2)C(=O)N1c1ccccc1`, for which the cell number change worked out at 550%. The AC50 under setting [2] was 18.4 µM [rising, partial curve]. For the same molecule, under setting [1], the AC50 is 10.3 µM [rising, partial curve].

For the molecule `COc1ccc2cc(C(=O)N3CCN(c4ccc(F)cc4)CC3)[nH]c2c1`, the AC50 under setting [1] was 6.51 µM [falling, single point].

Consider `CCOc1cccc(C(=O)Nc2cccc(C(C)=O)c2)c1`, for which the cell number change was 29.2%.

`COc1cc2ccccc2cc1C(=O)N/N=C/c1ccc2c(c1)OCO2`: the cell number change is -3.47%. Further, the AC50 under setting [1] was 6.51 µM [rising, single point].

For `COc1cccc(OC)c1C(=O)Nc1sc2c(c1C(N)=O)CCN(Cc1ccccc1)C2`, the cell number change was 11%.

Regarding `Cc1c(C(=O)N2CCCCC2)sc(NC(=O)C2CC2)c1C#N`, the cell number change turned out to be 38.1%. Besides, the AC50 under setting [2] is 5.17 µM [rising, partial curve].

Turning to `CCOC(=O)c1sc(=S)n(-c2ccccc2Cl)c1SC`, the cell number change is -20.6%.

`COc1ccc(C(=O)Nc2nncs2)cc1S(=O)(=O)N1CC(c2ccccc2)CC1=O` (stereo not given): the cell number change amounted to 0.845%. For the same molecule, the half-maximal activity concentration (AC50) under setting [1] is 5.17 µM [falling, single point].

For the molecule `O=C(O)CCCCOn1ccnc1`, the cell number change is 6.23%. The AC50 under setting [1] is 0.146 µM [falling, partial curve, poor fit].

In the case of `O=S1(=O)CCN2C(c3cccc4ccccc34)=CSC2=N1`, the cell number change is -28.2%. The AC50 under setting [1] was 0.291 µM [falling, partial curve, poor fit].

On to `CCN(CC1CCCN(CCc2cccc(F)c2)C1)C(=O)c1cc(C)oc1C` (stereo not given), for which the cell number change came to 29.2%. Also, under setting [1], the AC50 was 29.1 µM [falling, single point].

On to `CCCn1c(SCC(=O)Nc2cc(S(=O)(=O)N3CCCCC3)ccc2C)n[nH]c1=O`, for which the cell number change is -5.01%. In addition, the AC50 under setting [1] is 4.61 µM [rising, partial curve, poor fit].

With `O=C(Nc1ccc(F)cc1F)NC1CCCc2ccccc21` (stereo not given), the cell number change is 8.38%. The AC50 under setting [2] is 0.461 µM [rising, single point].

Regarding `c1csc(-c2csc(-c3cccs3)n2)c1`, the cell number change was -3.35%. For the same molecule, under setting [1], the AC50 is 29.1 µM [rising, single point].

Regarding `CC(C)COc1cccc(C(=O)Nc2ccc(S(=O)(=O)N3CCOCC3)cc2)c1`, the cell number change is -23.7%. Further, the AC50 under setting [1] was 23.1 µM [falling, single point].

For the molecule `O=C(O)c1cc(S(=O)(=O)NCCN2CCNC2=O)ccc1O`, the cell number change was found to be 30%. The half-maximal activity concentration (AC50) under setting [2] is 0.58 µM [rising, full curve, poor fit].

For `O=C(NCc1cccnc1)c1ccc(CS(=O)(=O)Cc2ccc(Cl)cc2)o1`, the cell number change is 99%. The AC50 under setting [2] is 18.4 µM [rising, partial curve]. The AC50 under setting [1] is 2.31 µM [rising, partial curve, poor fit].

Consider `O=C(NC(=S)Nc1ccc(NC(=O)c2cccs2)cc1)c1cc2ccccc2o1`, for which the cell number change is -32.3%. Further, the AC50 under setting [2] is 29.1 µM [falling, single point]. Further, the AC50 under setting [1] is 0.461 µM [rising, full curve, poor fit].

For the molecule `O=c1[nH]c(=O)n(CCc2ccc(F)cc2)c(O)c1C=NCc1ccc2c(c1)OCO2`, the cell number change was determined as 55.6%. The concentration at half-maximal activity (AC50) under setting [2] is 2.91 µM [rising, full curve]. The AC50 under setting [1] is 4.11 µM [rising, partial curve].

With `Cc1nn(Cc2n[nH]c(=S)n2Cc2ccccc2)c(C)c1Cl`, the cell number change was -10.2%.

For `O=C(C1CC(=O)N(c2ccc(Br)cc2)C1)N1CCCC1` (stereo not given), the cell number change came to 21.6%.

Consider `COc1ccc(C(=O)NN(C)c2nc(C(F)(F)F)nc3ccccc23)cc1`, for which the cell number change amounted to 20.3%. Also, the AC50 under setting [2] is 4.61 µM [rising, full curve, poor fit].

In the case of `COc1ccccc1NC(=O)C1=C(C)Nc2nc(-c3cccs3)nn2C1c1cccc(O)c1` (stereo not given), the cell number change was 30.1%. For the same molecule, the half-maximal activity concentration (AC50) under setting [2] was 1.84 µM [rising, single point].

As for `O=C(O)c1ccc(NC(=S)NC(=O)c2ccc(-c3ccc(Br)cc3)o2)cc1`, the cell number change was -5.17%. Besides, the AC50 under setting [1] is 0.82 µM [falling, single point].

As for `CN(C(=O)CCn1c(=S)oc2ccccc21)C1CCCCC1`, the cell number change is 26%. The AC50 under setting [1] is 14.6 µM [rising, partial curve].

Consider `Cn1c(=O)c2cc(S(=O)(=O)NCCC(=O)NC3CCCCCC3)ccc2n(C)c1=O`, for which the cell number change came out at 24.8%. Under setting [1], the half-maximal activity concentration (AC50) was 0.0206 µM [falling, full curve, poor fit].

Take `O=C1CC(NC23CC4CC(CC(C4)C2)C3)C(=O)N1c1ccc2c(c1)OCO2` (stereo not given): the cell number change worked out at 32.3%. Also, the AC50 under setting [2] was 5.17 µM [rising, single point].

For `COc1cccc(NC(=O)CN2CCN(C(=O)c3ccco3)CC2)c1`, the cell number change came out at 1.52%.

Turning to `CC(=O)Nc1ccc(-c2cc(NC(C)=O)n(-c3ccccc3)n2)cc1`, the cell number change is -0.428%. The AC50 under setting [1] is 1.84 µM [rising, partial curve].

As to `NC(=O)CSc1nnc(NC(=O)c2ccc3ccccc3c2)s1`, the cell number change is -96.5%. Moreover, the AC50 under setting [2] is 25.9 µM [falling, partial curve].

On to `COc1ccccc1/C=C/C(=O)c1c2c(c(C)[nH]c1=O)CCCC2`, for which the cell number change is -75.4%. Further, the AC50 under setting [2] is 14.6 µM [falling, partial curve]. Moreover, under setting [1], the AC50 is 29.1 µM [falling, single point].

For `CC(CCc1ccccc1)NC(=O)COC(=O)c1cccs1` (stereo not given), the cell number change is -47.1%.

Consider `CC1CN(C(=O)COC(=O)c2nn(-c3ccccc3)c(=O)c3ccccc23)CC(C)O1` (stereo not given), for which the cell number change is 41%. The AC50 under setting [1] was 1.3 µM [falling, full curve].

For the molecule `COc1ccc(C(=O)NNC(=O)c2ccc(C)cc2)cc1S(=O)(=O)N1CCCC1`, the cell number change was 22.7%. Also, the half-maximal activity concentration (AC50) under setting [1] is 0.164 µM [rising, full curve].

For `N#Cc1c(SCc2ccccc2)sc(C(=O)c2ccccc2)c1N`, the cell number change was 72.6%. Also, the AC50 under setting [2] was 3.66 µM [rising, partial curve].

As to `O=C(c1ccc(Cn2cc(Cl)cn2)o1)N1CCN(Cc2ccc3c(c2)OCO3)CC1`, the cell number change is -46.2%. Besides, the AC50 under setting [2] was 32.6 µM [falling, partial curve, poor fit].

In the case of `NS(=O)(=O)c1ccc(NC(=O)C2(c3ccccc3)CCCC2)cc1`, the cell number change came out at 5.37%. Further, the AC50 under setting [1] was 6.51 µM [falling, partial curve, poor fit].

Turning to `Cc1ccc(S(=O)(=O)N2CCN(C(=O)c3cc(S(=O)(=O)N(C)C)ccc3N3CCCC3)CC2)cc1`, the cell number change is -22.8%. The AC50 under setting [1] was 29.1 µM [falling, single point].

Turning to `O=c1sc(Nc2ccccc2)nc2ccsc12`, the cell number change amounted to 2.32%.

With `C=CCc1cccc(OC)c1OCCOCCNCCO`, the cell number change was -147%. Moreover, under setting [2], the AC50 is 23.1 µM [falling, partial curve]. Besides, the AC50 under setting [1] was 20.6 µM [falling, partial curve].

With `CN(C)c1ncnc2c1ncn2C1OC(CO)C(O)C1O` (stereo not given), the cell number change is -21.9%. Moreover, the half-maximal activity concentration (AC50) under setting [1] was 16.4 µM [falling, single point].

Turning to `O=C1c2ccc(Cl)cc2S(=O)(=O)c2cccc(C(=O)N3CCN(c4ncc(Br)cn4)CC3)c21`, the cell number change was -18.1%. The half-maximal activity concentration (AC50) under setting [1] is 1.84 µM [falling, single point].

Regarding `O=C(COc1ccccc1Cl)Nn1cnnc1`, the cell number change was determined as 6.64%.

In the case of `COc1ccc(Cn2c(=O)oc3ccc(C)cc32)cc1`, the cell number change stood at 1.75%. In addition, the AC50 under setting [1] is 6.51 µM [falling, single point].

`O=C(N/N=C/c1cccnc1)c1ccc(NC(=O)c2cccc(Cl)c2)cc1`: the cell number change was determined as 7.08%.

Consider `CCc1cccc(C)c1NC(=O)COC(=O)c1ccc2c(c1)S(=O)(=O)c1ccccc1C2=O`, for which the half-maximal activity concentration (AC50) was 0.731 µM [falling, single point] under setting [2] and 0.116 µM [falling, full curve, poor fit] under setting [1].

For `CCN1C(=O)C(CC(=O)Nc2ccc(F)cc2)N(Cc2ccc3c(c2)OCO3)C1=S` (stereo not given), the cell number change was -1.29%. Moreover, the AC50 under setting [1] was 7.31 µM [rising, single point].

Consider `COc1ccccc1CNC(=O)c1ccccc1OC`, for which the AC50 under setting [2] is 6.51 µM [rising, single point].

As to `COC(=O)c1c(NC(=O)COC(=O)c2ccc(C)s2)sc2c1CCCCC2`, the cell number change was -4.87%. The AC50 under setting [1] was 0.13 µM [falling, full curve, poor fit].

Consider `C=CCn1c(O)c(N=NC(=O)OCC)c2ccccc21`, for which the cell number change was -1.77%. Also, under setting [2], the concentration at half-maximal activity (AC50) is 1.46 µM [rising, full curve]. The AC50 under setting [1] is 0.366 µM [rising, full curve].

On to `CCCc1cc(C(=O)NNC(=S)NC(C)c2ccccc2)cs1` (stereo not given), for which the cell number change is -53.8%. In addition, under setting [2], the AC50 is 18.4 µM [falling, partial curve]. Further, the AC50 under setting [1] was 14.6 µM [falling, partial curve].

The AC50 is the concentration giving half of the maximal activity seen. A high value points to activity only at high concentration.
